In publication PMC10761706:
These are yes or no findings as the source states them, for the method shown.

By UniProt entry, the sequences of proteins in these tests, tags left out. Residues count along the entry.
UniProt P37173, residues 23-567: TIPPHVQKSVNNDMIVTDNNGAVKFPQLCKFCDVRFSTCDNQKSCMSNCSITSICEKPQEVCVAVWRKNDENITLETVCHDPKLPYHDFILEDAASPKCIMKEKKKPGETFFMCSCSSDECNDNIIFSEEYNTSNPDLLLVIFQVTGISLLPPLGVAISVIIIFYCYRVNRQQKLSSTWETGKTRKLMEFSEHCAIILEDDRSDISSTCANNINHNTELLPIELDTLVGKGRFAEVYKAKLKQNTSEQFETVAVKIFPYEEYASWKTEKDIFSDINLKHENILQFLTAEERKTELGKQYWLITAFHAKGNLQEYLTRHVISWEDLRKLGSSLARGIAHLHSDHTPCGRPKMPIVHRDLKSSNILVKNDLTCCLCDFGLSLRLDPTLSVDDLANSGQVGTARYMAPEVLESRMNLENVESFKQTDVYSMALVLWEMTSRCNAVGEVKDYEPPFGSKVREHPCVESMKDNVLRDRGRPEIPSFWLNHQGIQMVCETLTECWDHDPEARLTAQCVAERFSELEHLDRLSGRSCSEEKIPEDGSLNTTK
UniProt Q13705, residues 19-512: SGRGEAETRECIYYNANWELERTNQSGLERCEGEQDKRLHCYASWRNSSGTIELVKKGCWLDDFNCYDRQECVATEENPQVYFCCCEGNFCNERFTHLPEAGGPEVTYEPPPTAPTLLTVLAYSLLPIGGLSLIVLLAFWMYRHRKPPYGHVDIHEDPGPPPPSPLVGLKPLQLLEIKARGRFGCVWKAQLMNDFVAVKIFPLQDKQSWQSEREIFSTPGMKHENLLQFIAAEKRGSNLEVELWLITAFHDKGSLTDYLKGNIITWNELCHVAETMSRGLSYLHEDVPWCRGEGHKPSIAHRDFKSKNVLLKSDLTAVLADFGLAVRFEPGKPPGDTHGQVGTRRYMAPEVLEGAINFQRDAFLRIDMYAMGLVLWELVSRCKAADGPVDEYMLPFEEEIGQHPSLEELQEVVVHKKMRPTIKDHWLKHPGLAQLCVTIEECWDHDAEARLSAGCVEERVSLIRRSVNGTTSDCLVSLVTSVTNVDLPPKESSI

Molecular target: HA-TβRII (type II TGF-β receptor) (human) (UniProt P37173)
Assay: patch/FRAP; live AML12 cells coexpressing the two epitope-tagged receptors; HA-TβRII patched and immobilised by a double layer of IgG (rabbit αHA IgG, Alexa 488-GαR IgG), Rf and D of the myc-tagged receptor (labelled by monovalent Fab') measured by FRAP at 15 °C in HBSS/HEPES/BSA; cells untreated, cholesterol-enriched (cholesterol-MβCD, 16 h) or with siRNA to endogenous TGFBR1; without or with 100 pM TGF-β1

myc-ACVR2B (activin type II receptor) (from UniProt Q13705 19-512)
binding: no binding
